Values from PubChem BioAssay AID1224827 (NIAID, 2016)
Here is an unselected part of about 3,800 reagents tested. About 2,200 of them (57%) count as active. 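Active means a strong reporter change in either direction; calls are per siRNA, not per gene; qiagen siRNAs gave weaker effects.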 Further read-outs or replicates are left out here.

Test: 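Retest primary hits on a TNF reporter with six siRNAs per gene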 (follow-up of hits)
System: RAW264.7 G9 mouse macrophage reporter clone
Knock-down reagent: single siRNA against mouse genes, 100 nM siRNA
Timing: siRNA for 2 days, then LPS about 16 h
Challenge: bacterial lipopolysaccharide (LPS), 10 ng/ml, cells fixed after overnight (about 16 h) stimulation
Measurement: 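TNF promoter reporter red fluorescence in nuclei, background subtracted, normalised per plate and to non-targeting control siRNA, as z-scores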
Reading the numbers: TNF reporter z-score, mean: higher = stronger Tnf promoter reporter signal; gene median z, three same-vendor siRNAs: higher = stronger Tnf reporter signal for the gene
Active means: 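An siRNA is called active when its mean z-score over replicates is at least +2 or at most -2; control wells get no call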

Cimip2b (GeneID 329831) [SID315488979]
- TNF reporter z-score, mean: -3.17
- gene median z, three same-vendor siRNAs: -3.55
- outcome: active

Cimip2b (GeneID 329831) [SID315488980]
- TNF reporter z-score, mean: -3.82
- gene median z, three same-vendor siRNAs: -3.55
- outcome: active

Cimip2b (GeneID 329831) [SID315488981]
- TNF reporter z-score, mean: -4.75
- gene median z, three same-vendor siRNAs: -3.55
- outcome: active

Cimip2b (GeneID 329831) [SID315488982]
- TNF reporter z-score, mean: 1.34
- gene median z, three same-vendor siRNAs: 0.62
- outcome: inactive

Cimip2b (GeneID 329831) [SID315488983]
- TNF reporter z-score, mean: 0.62
- gene median z, three same-vendor siRNAs: 0.62
- outcome: inactive

Cimip2b (GeneID 329831) [SID315488984]
- TNF reporter z-score, mean: -0.0358
- gene median z, three same-vendor siRNAs: 0.62
- outcome: inactive

Hivep2 (GeneID 15273) [SID315484305]
- TNF reporter z-score, mean: 1.11
- gene median z, three same-vendor siRNAs: -1.18
- outcome: inactive

Hivep2 (GeneID 15273) [SID315484306]
- TNF reporter z-score, mean: -1.18
- gene median z, three same-vendor siRNAs: -1.18
- outcome: inactive

Hivep2 (GeneID 15273) [SID315484307]
- TNF reporter z-score, mean: -3.77
- gene median z, three same-vendor siRNAs: -1.18
- outcome: active

Hivep2 (GeneID 15273) [SID315484308]
- TNF reporter z-score, mean: 3.2
- gene median z, three same-vendor siRNAs: -1.45
- outcome: active

Hivep2 (GeneID 15273) [SID315484309]
- TNF reporter z-score, mean: -1.45
- gene median z, three same-vendor siRNAs: -1.45
- outcome: inactive

Hivep2 (GeneID 15273) [SID315484310]
- TNF reporter z-score, mean: -3.52
- gene median z, three same-vendor siRNAs: -1.45
- outcome: active

Pard6a (GeneID 56513) [SID315485976]
- TNF reporter z-score, mean: -0.842
- gene median z, three same-vendor siRNAs: -3.29
- outcome: inactive

Pard6a (GeneID 56513) [SID315485977]
- TNF reporter z-score, mean: -3.29
- gene median z, three same-vendor siRNAs: -3.29
- outcome: active

Pard6a (GeneID 56513) [SID315485978]
- TNF reporter z-score, mean: -4.73
- gene median z, three same-vendor siRNAs: -3.29
- outcome: active

The list goes on; the last 3 above are carried over.
Pard6a (GeneID 56513) [SID315485976]
- TNF reporter z-score, mean: -0.842
- gene median z, three same-vendor siRNAs: -3.29
- outcome: inactive

Pard6a (GeneID 56513) [SID315485977]
- TNF reporter z-score, mean: -3.29
- gene median z, three same-vendor siRNAs: -3.29
- outcome: active

Pard6a (GeneID 56513) [SID315485978]
- TNF reporter z-score, mean: -4.73
- gene median z, three same-vendor siRNAs: -3.29
- outcome: active

Pcdhgc4 (GeneID 93707) [SID315487311]
- TNF reporter z-score, mean: -1.43
- gene median z, three same-vendor siRNAs: -2.39
- outcome: inactive

Pcdhgc4 (GeneID 93707) [SID315487312]
- TNF reporter z-score, mean: -2.12
- gene median z, three same-vendor siRNAs: -2.39
- outcome: active

Pcdhgc4 (GeneID 93707) [SID315487313]
- TNF reporter z-score, mean: -3.74
- gene median z, three same-vendor siRNAs: -2.39
- outcome: active

Pcdhgc4 (GeneID 93707) [SID315487314]
- TNF reporter z-score, mean: 4.81
- gene median z, three same-vendor siRNAs: 0.289
- outcome: active

Pcdhgc4 (GeneID 93707) [SID315487315]
- TNF reporter z-score, mean: 1.45
- gene median z, three same-vendor siRNAs: 0.289
- outcome: inactive

Pcdhgc4 (GeneID 93707) [SID315487316]
- TNF reporter z-score, mean: -2.03
- gene median z, three same-vendor siRNAs: 0.289
- outcome: active

Mettl18 (GeneID 69962) [SID315486594]
- TNF reporter z-score, mean: -3.99
- gene median z, three same-vendor siRNAs: -4.35
- outcome: active

Mettl18 (GeneID 69962) [SID315486595]
- TNF reporter z-score, mean: -4.6
- gene median z, three same-vendor siRNAs: -4.35
- outcome: active

Mettl18 (GeneID 69962) [SID315486596]
- TNF reporter z-score, mean: -4.8
- gene median z, three same-vendor siRNAs: -4.35
- outcome: active

Mettl18 (GeneID 69962) [SID315486597]
- TNF reporter z-score, mean: 3.37
- gene median z, three same-vendor siRNAs: 0.526
- outcome: active

Mettl18 (GeneID 69962) [SID315486598]
- TNF reporter z-score, mean: 0.209
- gene median z, three same-vendor siRNAs: 0.526
- outcome: inactive

Mettl18 (GeneID 69962) [SID315486599]
- TNF reporter z-score, mean: -0.994
- gene median z, three same-vendor siRNAs: 0.526
- outcome: inactive

Fbxw11 (GeneID 103583) [SID315487449]
- TNF reporter z-score, mean: 8.44
- gene median z, three same-vendor siRNAs: -0.00504
- outcome: active

Fbxw11 (GeneID 103583) [SID315487450]
- TNF reporter z-score, mean: -0.00504
- gene median z, three same-vendor siRNAs: -0.00504
- outcome: inactive

Fbxw11 (GeneID 103583) [SID315487451]
- TNF reporter z-score, mean: -3.44
- gene median z, three same-vendor siRNAs: -0.00504
- outcome: active

Fbxw11 (GeneID 103583) [SID315487452]
- TNF reporter z-score, mean: 1.59
- gene median z, three same-vendor siRNAs: -0.699
- outcome: inactive

Fbxw11 (GeneID 103583) [SID315487453]
- TNF reporter z-score, mean: -0.619
- gene median z, three same-vendor siRNAs: -0.699
- outcome: inactive

Fbxw11 (GeneID 103583) [SID315487454]
- TNF reporter z-score, mean: -2.89
- gene median z, three same-vendor siRNAs: -0.699
- outcome: active
